The values below come from publication PMC3826745.

The target in the assay is T1, C-terminally tagged Neurospora crassa eIF3l (Neurospora crassa) (UniProt Q7SB62).
T1 sequence: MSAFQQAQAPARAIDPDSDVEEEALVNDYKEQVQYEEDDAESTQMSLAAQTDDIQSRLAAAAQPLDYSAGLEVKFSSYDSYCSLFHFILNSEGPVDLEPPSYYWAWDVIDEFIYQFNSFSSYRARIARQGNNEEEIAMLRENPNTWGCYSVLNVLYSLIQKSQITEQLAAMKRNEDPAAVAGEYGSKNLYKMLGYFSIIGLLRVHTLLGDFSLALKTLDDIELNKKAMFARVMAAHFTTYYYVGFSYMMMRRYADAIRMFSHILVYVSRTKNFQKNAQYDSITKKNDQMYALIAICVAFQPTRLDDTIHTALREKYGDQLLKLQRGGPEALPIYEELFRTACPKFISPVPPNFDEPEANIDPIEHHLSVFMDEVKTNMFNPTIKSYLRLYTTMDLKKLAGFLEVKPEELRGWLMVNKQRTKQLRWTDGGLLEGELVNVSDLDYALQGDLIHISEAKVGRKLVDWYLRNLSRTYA
The assay is described as follows: affinity purification with mass spectrometry; anti-FLAG affinity beads in N. crassa lysate (TBS, 0.5% Triton X-100, 10% glycerol), 4-20 h at 4°C, FLAG peptide elution; Coomassie gel, subunits identified by tandem mass spectrometry; C-terminally tagged eIF3l as bait.

No constants are given. Whether binding was seen depends on the method and setting. In cells and extracts the contact can be indirect. These calls come from enrichment with a bait or labelling near it, and not all partners need be listed. A no says only that the protein was not detected with the bait. Tags and fused reporters may be left off the sequences shown.

B1: Neurospora crassa eIF3j (protein, UniProt Q7S931 1-274)
chain: MSGKKWDEEEEESSAPNSPVLAPGRRRFDDEEGNESDVLDSWDAAEDSEVEREKAKKAAEAKAKAEAEAAANKKSKAQRIAERQAERARQLAEDSDAEEETEAERRERLRREQKESDLKHAEDLFAGIGISNDRKVVSKGTIVQIDPKDPNNTIDISTLALFNPTTKTQFETLRTTLGPMIGKLSPKPHYTLFLQEFSKQLAKDLKSDEIKKIASTLTALSNEKLKEEKAAEKGGKKSKAAKTKTSLAGVGRGGAIAEAHDTYDDDAFGDDDFM
Turning to B1, the binding result is listed as “no binding”.

B2: Neurospora crassa eIF3k (protein, UniProt Q7S2R9 1-237)
chain: MNGEDPQERPDFIRAIINGLERYNPEAAGTLEAYLTQQCEEKFCDCNANRALLKLYQLNPDRIKDEVITNILVKAMTQFPSPQFDLALHLLSPSQSNPGPNSSSELTEAVSKLRALNAQLEGAEYARFWATLDSDDLYADLTTDIAGFEDMIRVRIAQLVGQSYREIQFPVLESWLGLNNSEATTQFITETCGWKVEGDVVQIPKNADNEARKAEIREDVNVDMFARVIKRSWEESA
Regarding B2, the binding entry was “binds”.
